Binding data for 2 substances are collected here from article PMC8301015.

Chains of the proteins cited; added tags and fusions are not shown. Lines headed by an entry give the natural chain unless they say otherwise; changes in a name come on top.
UniProt Q9RRB4: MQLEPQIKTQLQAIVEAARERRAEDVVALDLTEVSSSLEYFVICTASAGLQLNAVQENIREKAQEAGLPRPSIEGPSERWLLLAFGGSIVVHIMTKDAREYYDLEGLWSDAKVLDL
UniProt Q9RZ10: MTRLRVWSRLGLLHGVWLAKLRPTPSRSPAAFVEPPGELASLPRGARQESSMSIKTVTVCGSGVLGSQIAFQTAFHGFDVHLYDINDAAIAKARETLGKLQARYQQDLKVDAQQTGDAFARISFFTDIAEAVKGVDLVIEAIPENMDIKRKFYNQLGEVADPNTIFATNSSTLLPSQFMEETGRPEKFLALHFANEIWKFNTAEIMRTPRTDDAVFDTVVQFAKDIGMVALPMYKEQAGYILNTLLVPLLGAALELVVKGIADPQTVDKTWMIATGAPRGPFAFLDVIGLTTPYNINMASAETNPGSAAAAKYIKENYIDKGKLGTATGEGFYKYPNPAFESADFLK

Results are given in words; binding and its absence hold for the method and conditions named. Binding seen in cells or lysates may run through a third protein. These calls come from enrichment with a bait or labelling near it, and not all partners need be listed. Sequences can lack the tags named with a protein.

The target in this assay is T1, AbxC (atypical BrxC; DR_1832), C-terminal His x 6 tag (Deinococcus radiodurans) (UniProt Q9RTD3).
T1 sequence: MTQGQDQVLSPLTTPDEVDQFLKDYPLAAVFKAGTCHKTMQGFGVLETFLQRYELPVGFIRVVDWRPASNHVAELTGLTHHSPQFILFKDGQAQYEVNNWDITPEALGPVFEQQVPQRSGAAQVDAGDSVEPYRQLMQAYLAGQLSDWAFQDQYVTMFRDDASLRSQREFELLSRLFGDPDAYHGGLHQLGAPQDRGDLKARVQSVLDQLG
The experiment in a line: affinity purification with mass spectrometry; AbxC immobilised on CNBr-activated Sepharose 4B; 10 mg D. radiodurans cell lysate, overnight at 4 °C; washed with 100 mM Tris pH 8.0, 0.5 M NaCl; eluted with 10 mM DTT; SDS-PAGE bands, in-gel trypsin, nLC-MS-MS; only the target purified.

Take “ribosomal silencing factor RsfS (DR_2580), endogenous (from UniProt Q9RRB4)”: the binding result was “binds”.
With “3-hydroxyacyl-CoA dehydrogenase (DR_A0143), endogenous (from UniProt Q9RZ10) (enzyme)”, the binding result was “binds”.
